Literature values, collected in patent US20140163115A1, “Migraine Treatments using the Bone Homeostasis Drug Cinacalcet” (priority 2012, published 2014).
At least one structure is not confirmed: it was looked up by name or label, or the drawing left a doubt.

Conditions: 4 mg dose by 15 minute intravenous infusion; cited from earlier work

Structure (SMILES): O=P(O)(O)C(O)(Cn1ccnc1)P(=O)(O)O [zoledronic acid]
- efficacy period: around 30 days
